Experimental data from PMC13189625.
No constants are given. Whether binding was seen depends on the method and setting. Binding seen in cells or lysates may run through a third protein. A result given as binding can be weak or reduced; the word gives no strength. Tags and fused reporters may be left off the sequences shown.

Protein sequences, listed by entry. Tags and fused reporters are not part of them. Lines headed by an entry give the natural chain unless they say otherwise; changes in a name come on top.
UniProt O54851: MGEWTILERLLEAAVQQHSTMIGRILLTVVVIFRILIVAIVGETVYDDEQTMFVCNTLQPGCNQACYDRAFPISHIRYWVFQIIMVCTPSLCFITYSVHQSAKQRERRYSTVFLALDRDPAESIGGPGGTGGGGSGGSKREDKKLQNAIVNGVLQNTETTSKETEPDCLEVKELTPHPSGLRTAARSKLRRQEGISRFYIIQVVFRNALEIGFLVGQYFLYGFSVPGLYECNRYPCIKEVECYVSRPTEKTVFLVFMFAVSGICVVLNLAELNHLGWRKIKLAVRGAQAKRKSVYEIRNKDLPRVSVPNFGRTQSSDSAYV

Molecular target: T1, FLAG-Sj2bp (UniProt P57105)
T1 sequence: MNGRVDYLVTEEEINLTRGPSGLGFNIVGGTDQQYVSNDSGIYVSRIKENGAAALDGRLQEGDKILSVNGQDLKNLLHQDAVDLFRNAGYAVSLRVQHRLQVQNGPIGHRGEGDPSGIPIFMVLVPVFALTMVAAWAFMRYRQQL
Assay: co-IP; co-transfected HEK293T lysate cleared at 20,000 × g; DYKDDDDK Fab-Trap agarose overnight, FLAG-Sj2bp as bait; Western blot

binding: binds
Substance: Cx36 with deletion of amino acids 313–319 (from UniProt O54851)
